About 2,100 (0.66%) of roughly 320,000 compounds were called active. The inconclusive results got no clear call from the source; some entries with a clear call stand among them for comparison. The call rests on the fitted dose curve; in most records, active means well fitted inhibition curve with a large enough effect in the signal ratio, with a control signal flat (not every such curve was filed as active); inconclusive means small, poorly fitted or top-dose-only effect, or effect the other way, or a change in a side signal; inactive means flat fitted curve, though single readings scatter; the % refers to the signal ratio. A potency beside an inconclusive call is a rough fit, not a confirmed value.
test: qHTS Assay for Lipid Storage Modulators in Drosophila S3 Cells; details: BODIPY lipid droplet fluorescence, 18-24 h, cells fed with added oleic acid; lipid storage change, negative = inhibition: at 46.1 µM (top of the series) unless noted
In short: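 Laser-scanning cytometry quantifies lipid droplet accumulation (500–530 nm total intensity; droplet/cell object ratio) in oleic acid-fed (400 uM added) Drosophila S3 cells treated with a concentration series. 20 uM Triacsin C defined 100% inhibition.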
On the % scale 0 is the no-effect control and ±100 the full control effect; potency means the concentration at half of the fitted maximal effect.

SMILES | Potency | lipid storage change, negative = inhibition
Nc1c(C(=O)OCC2CCCO2)c2nc3ccccc3nc2n1C1CCCC1 (centres undefined) | inconclusive: 1.64 µM [activator, partial curve] | –
Cc1ccc(C)c(OCCC(=O)Nc2ccc(S(=O)(=O)N3CCCC3)cc2)c1 | inconclusive: 29.1 µM [falling, single point] | –
CC(C)[C@H](NC(=O)[C@@H]1Cc2ccccc2CN1C(=O)OC(C)(C)C)C(=O)NC1CCCC1 | inconclusive: 29.1 µM [activator, single point] | –
O=C(Nc1c(Cl)cccc1Cl)C1CCN(C(=O)c2cccs2)CC1 | – | inconclusive: 54.4%
CC(=O)Nc1ccc(-c2cc3ccccc3o2)cc1 | – | inconclusive: 35.2%
CC1CCN(S(=O)(=O)c2ccc3c(c2)N(CC(=O)NCCCOC(C)C)C(=O)CS3)CC1 | – | inconclusive: 11%
CC(=O)N1c2ccccc2N(Cc2ccc([N+](=O)[O-])cc2)C(=O)C1(C)C | inconclusive: 2.31 µM [activator, partial curve] | –
O=C(Cn1cnc2c(nnn2Cc2ccccc2)c1=O)N1CCN(c2ccccc2)CC1 | – | inconclusive: 50.8%
COC(=O)c1cn(NC(=O)Cc2ccc(OC)c(OC)c2)c(=O)c2ccccc12 | – | inconclusive: 8.54%
COc1ccccc1C(=O)Nc1ccc2c(c1)CN(C(=O)CSC)CC2 | inconclusive: 11.6 µM [falling, partial curve, poor fit] | –
O=C(N/N=C/c1ccccc1Cl)c1[nH]c2ccc(Br)cc2c1-c1ccccc1 | – | inconclusive: -24.6%
CC(C)(C)C1CCC(=NNC(=O)C2COc3ccccc3O2)CC1 (centres undefined) | – | inconclusive: -22.8%
CC(C)(C)c1ccc(C(=O)NN=C2CCCC2)cc1 | inconclusive: 4.11 µM [falling, single point] | –
O=C(Nc1ccc(Cl)cc1F)C1CCN(S(=O)(=O)c2cccc3nonc23)CC1 | inconclusive: 5.17 µM [activator, single point] | –
Cn1c(=O)c2nnn(/N=C(\c3ccccc3)C3CC3)c2n(C)c1=O | – | inconclusive: 22.7%
C=CCOc1cccc(/C=C2\C(=O)N(Cc3ccc(C)cc3)C(C)=C2C(=O)OC)c1 | – | inconclusive: -65%
C[C@@H](NC(=O)Cn1ccc(N)nc1=O)c1cccc2ccccc12 | – | inconclusive: 7.83%
CC(C)NC(=O)C1CCN(C(=O)C(C(=O)c2ccccc2)n2cc(Cl)ccc2=O)CC1 (centres undefined) | inconclusive: 32.6 µM [falling, single point] | –
COc1ccc(/C=C/C(=O)NCCCc2ccccc2)cc1OC | – | inconclusive: -2.97%
COc1ccc(CCNC(=O)c2ccc(CNS(=O)(=O)c3cccc(Cl)c3)cc2)cc1OC | – | inconclusive: -55.4%
O=C(O)c1ccccc1C(=O)NCC(O)COc1ccc(Cl)cc1 (centres undefined) | – | inconclusive: 13.4%
CC(SCCc1ccccn1)C(=O)O (centres undefined) | – | inconclusive: -5.3%
CC(=O)Nc1ccccc1Sc1ccccc1 | – | inconclusive: -88.2%
CCOC(=O)[C@H]1[C@H]2COc3ccc(C)cc3[C@@H]2N2C(=O)c3ccc(F)cc3NC(=O)[C@@]12C | – | inconclusive: 30.7%
Cc1csc(SC(C)C(=O)Nc2ccc(S(=O)(=O)N3CCCC3)cc2)n1 (centres undefined) | inconclusive: 0.206 µM [activator, full curve] | –

SMILES | Potency | lipid storage change, negative = inhibition
CC(C)CCC(C)NC(=O)CN1C(=O)NC(C)(c2ccc3ccccc3c2)C1=O (centres undefined) | – | inconclusive: -41.6%
Cc1cccc(N(C(=O)CCC(=O)Nc2ccccn2)C(C(=O)NC(C)C)c2ccc(O)cc2)c1 (centres undefined) | – | inconclusive: 36.1%
CC1=C(C(=O)OC2CCCCC2)C(c2cccc([N+](=O)[O-])c2)NC(=O)N1 (centres undefined) | inconclusive: 0.0052 µM [falling, full curve, poor fit] | –
CCOc1ccc(/C=N/NC(=O)c2nnn(-c3nonc3N)c2CN2CCC(C)CC2)cc1 | inconclusive: 0.116 µM [falling, full curve, poor fit] | –
O=C(CN1C(=O)COc2ccccc21)NCCCN1CCCCC1 | – | inconclusive: -2.73%
CNCC(=O)Nc1ccc(Cl)c(C(F)(F)F)c1 | – | inconclusive: 14.4%
CC(C)C12CN3CC(C(C)C)(CN(C1)C3(C)C)C2=O | – | inactive
COc1ccc(/C=C/C(=O)Nc2ccc(-n3nncc3-c3ccccc3)cc2)cc1OC | – | inconclusive: 1.47%
S=C1NC2(CCCCC2)NN1c1ccccc1 | – | inconclusive: 14%
CCC1C/C(=C/c2cccs2)C(=O)/C(=C/c2cccs2)C1 (centres undefined) | – | inconclusive: 0.188%
Cc1cc(NC(c2ccc(Cl)cc2)c2ccc3cccnc3c2O)no1 (centres undefined) | inconclusive: 0.13 µM [falling, full curve, poor fit] | –
CCN1CCN(C(=O)c2cc(COc3ccc4ncccc4c3)on2)CC1 | – | inactive
CCCSc1nnc(NC(=O)c2ccco2)s1 | – | inconclusive: -0.186%
CN(C)C(=O)COC(=O)c1cccc(S(=O)(=O)N2CC3(C)CC2CC(C)(C)C3)c1 (centres undefined) | – | inconclusive: -45.7%
Cc1ccc(-c2nnc(SCC(=O)N/N=C/c3ccccc3C(=O)O)n2C2CCCCC2)cc1 | inconclusive: 20.6 µM [activator, single point] | –
C[C@H](NS(=O)(=O)c1ccccc1)C(=O)OCC(=O)NC(=O)Nc1ccc2c(c1)OCCO2 | inconclusive: 0.411 µM [falling, single point] | –
CCCN(CC(=O)Nc1ccccc1C)C(=O)c1ccc2[nH]c3c(c2c1)CC(C)CC3 (centres undefined) | inconclusive: 6.51 µM [falling, single point] | –
CN(C)c1ccc(NC(=O)Cn2ncn3c(cc4ccccc43)c2=O)cc1 | – | inconclusive: 19.3%
O=S(=O)(N/N=C/c1ccc2c(c1)OCO2)c1ccc(Br)cc1 | inconclusive: 29.1 µM [falling, single point] | –
O=C(C1CC1)N1CCc2cc(Br)cc(S(=O)(=O)NCCN3CCOCC3)c21 | – | inconclusive: 11.5%
CCC(C)[C@H](NC(=O)N1CC(=O)Nc2ccccc21)C(=O)N[C@H](Cc1c[nH]c2ccccc12)C(=O)O (some centres undefined) | – | inconclusive: -10.7%
CCCCn1c(=O)[nH]c(=O)c2c1nc(CN1C(=O)c3ccccc3S1(=O)=O)n2CCC | inconclusive: 4.11 µM [activator, full curve] | –
CC1Cc2ccccc2N1S(=O)(=O)c1cccc(C(=O)NC2CC2)c1 (centres undefined) | inconclusive: 29.1 µM [rising, single point] | –
Nc1ncc(CN2CCCC(C(=O)Nc3ccc(-c4ccco4)cc3)C2)cn1 (centres undefined) | inconclusive: 29.1 µM [activator, single point] | –
COc1cccc(OCC(O)CN2CCc3ccccc3C2)c1 (centres undefined) | inconclusive: 29.1 µM [rising, single point] | –

SMILES | Potency | lipid storage change, negative = inhibition
COc1ccc(-c2nc(SC)n(C(=O)c3ccco3)n2)cc1 | – | inconclusive: -30.9%
O=C(CN1C2CCCC1CC(NC(=O)c1ccco1)C2)Nc1ccccc1C(F)(F)F (centres undefined) | – | inactive
COc1cc(NC(=S)N2CCN(S(=O)(=O)c3ccccc3)CC2)cc(OC)c1 | – | inconclusive: 111%
O=C(N/C(=C\c1ccc(Cl)cc1)C(=O)N1CCOCC1)c1ccc([N+](=O)[O-])cc1 | – | inconclusive: 0.0544%
Cc1ccccc1CSc1ccc2nnc(-c3ccccn3)n2n1 | – | inconclusive: -11.8%
COc1ccc(N=C2NC(=O)C(CC(=O)NCCc3ccc(OC)c(OC)c3)S2)cc1 (centres undefined) | inconclusive: 32.6 µM [falling, partial curve, poor fit] | –
COc1ccc(CCNC(=O)CCCn2nc(C)n3ccnc3c2=O)cc1OC | – | inconclusive: 15.1%
Cn1ncc(Cl)c1C(=O)Nc1nc2ccc(Cl)cc2s1 | inconclusive: 4.61 µM [activator, full curve, poor fit] | –
CCCCCCC1CC(/C(C)=N\NC(N)=O)OC1=O (centres undefined) | – | inconclusive: 4.32%
Cn1nnnc1SCc1nnc(-c2ccc(Cl)cc2)o1 | – | inconclusive: 25.8%
CCc1nc(SCC(=O)Nc2ccc(N(C)C)cc2)n[nH]1 | – | inconclusive: 7.23%
O=C(COc1ccc(S(=O)(=O)N2CCOCC2)cc1Cl)N1CCCC1 | inconclusive: 29.1 µM [falling, partial curve, poor fit] | –
Cc1ccc(S(=O)(=O)N(CC(=O)N2CCOCC2)c2ccc(C(C)C)cc2)cc1 | – | inconclusive: 16.9%
C=CCn1c2ccccc2c2nnc(SCN3C(=O)c4ccccc4C3=O)nc21 | – | inconclusive: -29.3%
COc1ccc(N2CCCn3c2nc2c3c(=O)n(CCN3CCOCC3)c(=O)n2C)cc1 | – | inactive
CC(C)Cc1nnc(NC(=O)CCNC(=O)c2ccccc2Cl)s1 | – | inconclusive: -9.66%
N/C(=N\OC(=O)N1c2ccccc2Sc2ccccc21)c1ccc(Br)cc1 | – | inconclusive: 21.8%
CCN(CC)c1ccc2c(c1)CCCN2 | – | inconclusive: -19.5%
COc1ccc(O)c(-c2cc(-c3ccccc3Cl)[nH]n2)c1 | active: 3.66 µM | –
CC(=O)c1cccc(NC(=O)c2cc3ccccn3n2)c1 | inconclusive: 1.03 µM [rising, partial curve] | –
O=C(c1noc2c1CCc1ccccc1-2)N1CCCc2ccccc21 | inconclusive: 29.1 µM [activator, single point] | –
Cc1cccc(OCCCC(=O)NNC(=O)c2ccccn2)c1 | inconclusive: 18.4 µM [falling, partial curve, poor fit] | –
COc1ccc(CNc2ncc(-c3ccc(F)cc3)n2C)c2ccccc12 | – | inconclusive: 43%
NC(=O)c1ccc(-c2noc(-c3cccc(Cl)c3)n2)cc1 | – | inconclusive: 11.1%

Individual results from the results shown:
In lipid storage change, negative = inhibition, C=CCn1c2ccccc2c2nnc(SCN3C(=O)c4ccccc4C3=O)nc21 is entered as inconclusive: -29.3%
In Potency, O=C(COc1ccc(S(=O)(=O)N2CCOCC2)cc1Cl)N1CCCC1 is entered as inconclusive: 29.1 µM [falling, partial curve, poor fit]
In Potency, CC(=O)c1cccc(NC(=O)c2cc3ccccn3n2)c1 is entered as inconclusive: 1.03 µM [rising, partial curve]

From PubChem BioAssay AID2685 (National Center for Advancing Translational Sciences (NCATS), 2010)
